Common to all, as to assay: DAPPL (digital affinity profiling via proximity ligation, sequencing)
Holding throughout (conditions): 10 mM Tris-HCl pH 7.5, 50 mM NaCl, 1 mM DTT, 4% glycerol, room temperature, 30 min; GST-TFs on glutathione beads, 16-mer random dsDNA library, 0.1% …; high values mean tight binding; double strand, one strand shown; scale: fold enrichment (6-mer frequency, TF over GST control)

Chains of the proteins cited; added tags and fusions are not shown. Lines headed by an entry give the natural chain unless they say otherwise; changes in a name come on top.
UniProt P32519: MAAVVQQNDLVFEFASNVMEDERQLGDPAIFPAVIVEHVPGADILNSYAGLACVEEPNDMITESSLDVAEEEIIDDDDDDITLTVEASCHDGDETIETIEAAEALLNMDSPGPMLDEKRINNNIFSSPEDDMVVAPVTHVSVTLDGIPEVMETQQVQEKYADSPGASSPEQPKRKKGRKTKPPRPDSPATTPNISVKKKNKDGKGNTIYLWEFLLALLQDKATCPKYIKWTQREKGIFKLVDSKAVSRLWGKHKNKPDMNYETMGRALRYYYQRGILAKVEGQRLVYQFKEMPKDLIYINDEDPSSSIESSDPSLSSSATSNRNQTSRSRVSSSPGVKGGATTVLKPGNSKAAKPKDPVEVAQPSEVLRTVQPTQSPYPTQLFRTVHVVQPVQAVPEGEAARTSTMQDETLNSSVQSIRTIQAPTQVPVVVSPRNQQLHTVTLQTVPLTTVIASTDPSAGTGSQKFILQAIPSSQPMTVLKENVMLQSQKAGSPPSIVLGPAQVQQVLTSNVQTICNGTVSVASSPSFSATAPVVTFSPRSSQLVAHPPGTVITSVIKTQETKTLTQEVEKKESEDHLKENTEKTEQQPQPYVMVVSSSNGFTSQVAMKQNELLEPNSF
UniProt P50549: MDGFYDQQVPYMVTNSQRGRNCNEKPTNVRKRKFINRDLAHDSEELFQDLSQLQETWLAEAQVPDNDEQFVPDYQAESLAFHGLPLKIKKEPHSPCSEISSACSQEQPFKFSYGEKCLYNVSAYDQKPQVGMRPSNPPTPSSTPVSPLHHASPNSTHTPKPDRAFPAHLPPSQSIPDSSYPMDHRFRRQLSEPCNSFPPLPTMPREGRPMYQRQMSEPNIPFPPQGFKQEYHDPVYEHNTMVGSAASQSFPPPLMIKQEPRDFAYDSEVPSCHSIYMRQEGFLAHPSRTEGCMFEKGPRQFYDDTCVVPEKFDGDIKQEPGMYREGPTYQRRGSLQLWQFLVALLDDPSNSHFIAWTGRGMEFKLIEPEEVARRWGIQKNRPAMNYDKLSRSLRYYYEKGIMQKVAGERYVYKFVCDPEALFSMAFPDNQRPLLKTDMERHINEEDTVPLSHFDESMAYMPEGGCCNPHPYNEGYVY

In test [1] the target is T1, ERG (UniProt P11308).
T1 sequence: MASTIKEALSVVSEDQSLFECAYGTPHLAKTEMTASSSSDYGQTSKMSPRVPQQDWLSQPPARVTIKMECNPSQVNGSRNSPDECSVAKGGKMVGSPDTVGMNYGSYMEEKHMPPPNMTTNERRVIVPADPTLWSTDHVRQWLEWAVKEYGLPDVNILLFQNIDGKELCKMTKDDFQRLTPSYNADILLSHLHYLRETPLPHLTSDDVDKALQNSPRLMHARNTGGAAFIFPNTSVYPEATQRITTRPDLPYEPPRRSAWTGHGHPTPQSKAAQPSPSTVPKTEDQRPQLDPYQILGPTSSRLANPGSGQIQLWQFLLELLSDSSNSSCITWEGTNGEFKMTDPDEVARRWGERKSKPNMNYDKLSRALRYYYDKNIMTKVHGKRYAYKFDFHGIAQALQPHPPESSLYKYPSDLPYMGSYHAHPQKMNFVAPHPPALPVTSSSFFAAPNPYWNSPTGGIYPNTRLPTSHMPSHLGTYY

Test [2] deals with ELF1 (UniProt P32519).
Test [3] addresses T2, ELK4 (UniProt P28324-2).
T2 sequence: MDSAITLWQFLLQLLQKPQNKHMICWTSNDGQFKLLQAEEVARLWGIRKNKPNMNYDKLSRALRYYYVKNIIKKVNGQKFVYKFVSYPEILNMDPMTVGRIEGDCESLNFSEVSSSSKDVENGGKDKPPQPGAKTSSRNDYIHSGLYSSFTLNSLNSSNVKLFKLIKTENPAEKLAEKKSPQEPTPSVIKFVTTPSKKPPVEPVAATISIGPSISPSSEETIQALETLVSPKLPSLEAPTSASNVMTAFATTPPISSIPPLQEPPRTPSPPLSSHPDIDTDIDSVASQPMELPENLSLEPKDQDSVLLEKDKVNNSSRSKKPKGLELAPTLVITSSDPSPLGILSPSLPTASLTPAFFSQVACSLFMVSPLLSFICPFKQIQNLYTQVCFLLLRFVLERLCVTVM

Test [4] addresses T3, ETV4 (UniProt P43268).
T3 sequence: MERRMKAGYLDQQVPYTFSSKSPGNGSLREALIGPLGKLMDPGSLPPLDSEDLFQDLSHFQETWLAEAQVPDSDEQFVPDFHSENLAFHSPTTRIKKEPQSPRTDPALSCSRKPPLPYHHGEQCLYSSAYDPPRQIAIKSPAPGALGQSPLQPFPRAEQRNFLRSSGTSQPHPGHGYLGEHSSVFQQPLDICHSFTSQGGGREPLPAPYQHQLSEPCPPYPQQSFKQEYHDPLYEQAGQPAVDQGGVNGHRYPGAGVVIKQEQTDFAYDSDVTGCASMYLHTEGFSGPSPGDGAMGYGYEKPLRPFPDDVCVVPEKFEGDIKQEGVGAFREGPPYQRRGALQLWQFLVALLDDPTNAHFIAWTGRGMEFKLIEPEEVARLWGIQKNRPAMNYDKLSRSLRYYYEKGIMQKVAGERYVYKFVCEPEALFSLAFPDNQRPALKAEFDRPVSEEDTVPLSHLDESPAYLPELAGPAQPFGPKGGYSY

Test [5] has as its target ETV1 (UniProt P50549).
Test [6] concerns the target T4, ERF (UniProt P50548).
T4 sequence: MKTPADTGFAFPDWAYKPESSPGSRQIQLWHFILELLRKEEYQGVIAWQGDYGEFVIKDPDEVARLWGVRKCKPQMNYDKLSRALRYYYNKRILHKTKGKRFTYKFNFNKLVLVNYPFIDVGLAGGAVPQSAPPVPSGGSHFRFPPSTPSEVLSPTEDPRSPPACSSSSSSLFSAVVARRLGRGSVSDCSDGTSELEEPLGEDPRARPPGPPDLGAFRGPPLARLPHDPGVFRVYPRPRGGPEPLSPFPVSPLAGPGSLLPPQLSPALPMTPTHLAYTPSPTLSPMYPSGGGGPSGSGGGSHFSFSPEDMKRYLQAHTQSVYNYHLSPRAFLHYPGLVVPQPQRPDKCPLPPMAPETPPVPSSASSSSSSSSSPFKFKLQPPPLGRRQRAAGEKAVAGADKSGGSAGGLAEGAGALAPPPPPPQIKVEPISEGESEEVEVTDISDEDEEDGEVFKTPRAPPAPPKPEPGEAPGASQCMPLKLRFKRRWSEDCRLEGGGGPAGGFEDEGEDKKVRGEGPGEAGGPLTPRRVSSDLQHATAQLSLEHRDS

This is a selection; strong and weak results do not stand in their true shares. For part of these data: At the low end of the ranking the order means little. The list shows a part of the results. For part of these data: The source does not settle which construct or isoform was used.

Consider TCGTGA, for which the binding signal in test [1] was 0.33; in test [2], 0.325; in test [3] it was 0.366; in test [4], 0.324; in test [5] it was 0.328; in test [6], 0.331.

As to GCCAAG, the binding signal in test [1] was found to be 0.819; in test [2], 0.881; in test [3] it was 0.963; in test [4], 0.876; in test [5], 0.767; in test [6], 0.946.

With AGGAGG, the binding signal in test [1] was 0.235; in test [2], 0.214; in test [3], 0.191; in test [4] it was 0.224; in test [5], 0.217; in test [6], 0.221.

As to GACAAC, the binding signal in test [1] came out at 0.941; in test [2], 0.982; in test [3], 0.862; in test [4], 0.962; in test [5], 0.973; in test [6] it was 0.883.

As for CCATGA, the binding signal was determined as 0.81 in test [1]; 0.844 in test [2]; 1 in test [3]; 0.884 in test [4]; 0.817 in test [5]; 0.915 in test [6].

GCATGA: the binding signal amounted to 0.807 in test [1]; 0.859 in test [2]; 0.758 in test [3]; 0.89 in test [4]; 0.778 in test [5]; 0.773 in test [6].

Turning to CGCGAG, the binding signal in test [1] amounted to 0.569; in test [2], 0.533; in test [3] it was 0.495; in test [4] it was 0.534; in test [5] it was 0.561; in test [6], 0.601.

Regarding CCAGAG, the binding signal in test [1] was determined as 0.68; in test [2], 0.695; in test [3], 0.79; in test [4], 0.706; in test [5] it was 0.682; in test [6], 0.627.

Regarding GGGGGC, the binding signal in test [1] came to 0.652; in test [2] it was 0.643; in test [3], 0.768; in test [4], 0.56; in test [5], 0.662; in test [6] it was 0.699.

On to GCCAGG, for which the binding signal was found to be 0.45 in test [1]; 0.432 in test [2]; 0.422 in test [3]; 0.434 in test [4]; 0.484 in test [5]; 0.448 in test [6].

Consider AAAGAG, for which the binding signal in test [1] worked out at 0.873; in test [2] it was 0.946; in test [3] it was 0.888; in test [4], 0.832; in test [5] it was 0.959; in test [6] it was 0.924.

On to CGTGAC, for which the binding signal in test [1] came out at 0.562; in test [2] it was 0.554; in test [3] it was 0.603; in test [4], 0.556; in test [5] it was 0.539; in test [6] it was 0.567.

Take GAGCCA: the binding signal is 0.623 in test [1]; 0.613 in test [2]; 0.635 in test [3]; 0.615 in test [4]; 0.556 in test [5]; 0.581 in test [6].

Regarding ACAGGC, the binding signal came to 0.692 in test [1]; 0.687 in test [2]; 0.657 in test [3]; 0.654 in test [4]; 0.703 in test [5]; 0.698 in test [6].

On to GGTCGC, for which the binding signal in test [1] stood at 0.812; in test [2], 0.825; in test [3], 0.796; in test [4], 0.863; in test [5], 0.935; in test [6] it was 0.877.

In the case of CTGTGA, the binding signal in test [1] was 0.479; in test [2], 0.5; in test [3], 0.52; in test [4], 0.49; in test [5] it was 0.53; in test [6], 0.526.

On to AAGACG, for which the binding signal is 0.724 in test [1]; 0.745 in test [2]; 0.764 in test [3]; 0.723 in test [4]; 0.795 in test [5]; 0.701 in test [6].

Consider CTGAGT, for which the binding signal worked out at 0.612 in test [1]; 0.61 in test [2]; 0.632 in test [3]; 0.615 in test [4]; 0.625 in test [5]; 0.582 in test [6].

Turning to GTCAGA, the binding signal in test [1] worked out at 0.619; in test [2] it was 0.628; in test [3], 0.587; in test [4], 0.643; in test [5] it was 0.677; in test [6] it was 0.639.

Turning to GTCGCC, the binding signal in test [1] stood at 0.853; in test [2], 0.893; in test [3] it was 0.876; in test [4], 0.925; in test [5], 0.992; in test [6], 0.883.

For the sequence GGCAGT, the binding signal worked out at 0.524 in test [1]; 0.518 in test [2]; 0.48 in test [3]; 0.539 in test [4]; 0.523 in test [5]; 0.575 in test [6].

As to CAGTAG, the binding signal in test [1] is 0.553; in test [2], 0.62; in test [3], 0.58; in test [4], 0.602; in test [5], 0.625; in test [6] it was 0.614.

Consider GGTTGG, for which the binding signal in test [1] is 0.719; in test [2], 0.763; in test [3], 0.836; in test [4], 0.676; in test [5], 0.74; in test [6], 0.682.

For GGCGTC, the binding signal in test [1] was determined as 0.849; in test [2], 0.813; in test [3], 0.79; in test [4], 0.803; in test [5], 0.868; in test [6] it was 0.787.

Take GAGAGA: the binding signal in test [1] is 0.421; in test [2] it was 0.434; in test [3], 0.41; in test [4], 0.406; in test [5] it was 0.393; in test [6], 0.484.

As to AAGGTG, the binding signal is 0.895 in test [1]; 0.949 in test [2]; 0.884 in test [3]; 0.865 in test [4]; 0.889 in test [5]; 0.978 in test [6].

Consider ACGGTG, for which the binding signal in test [1] was 0.495; in test [2], 0.554; in test [3], 0.524; in test [4] it was 0.54; in test [5], 0.485; in test [6] it was 0.502.

In the case of GGAAAG, the binding signal was found to be 0.984 in test [1]; 0.904 in test [2]; 0.834 in test [3]; 0.897 in test [4]; 0.935 in test [5]; 0.913 in test [6].

With ATGTGA, the binding signal in test [1] was 0.633; in test [2], 0.659; in test [3], 0.665; in test [4], 0.647; in test [5], 0.658; in test [6], 0.617.

Consider CACGAG, for which the binding signal in test [1] is 0.806; in test [2], 0.897; in test [3], 0.81; in test [4], 0.824; in test [5], 0.823; in test [6], 0.859.

The values are drawn from publication PMC7862700.
